In patent publication US20110086797A1, “CONTROL OF SPORE GERMINATION” (priority 2007, published 2011):
“Also recorded” adds a separate entry of the source.

Columns and labels:
[1] = test system: spores expressing the Mtb kinase
B. subtilis spores = assay: Measurement of germination by loss of heat resistance; format: cell-based, Bacillus subtilis

With `CN[C@@H]1C[C@H]2O[C@@](C)([C@@H]1OC)n1c3ccccc3c3c4c(c5c6ccccc6n2c5c31)C(=O)NC4` [staurosporine] as the compound, how does the “sensitivity of germination to inhibition (result in words)” value [1] read?
Its value is “less sensitive to inhibition by the ATP analog staurosporine (˜μM)”.

What about the “inhibition of cell wall / peptidoglycan dependent germination (result in words)” value (B. subtilis spores) of the same compound?
The value was “sensitive to inhibition by the ATP analog staurosporine (˜pM); also recorded: inhibited with the small molecular kinase inhibitor staurosporine, a natural product of another soil bacterium, at pM concentrations; also recorded: blocking germination of dormant spores at very low (˜pM) concentrations”.
